Test results: the supplement of paper PMC8256030
Where “and” joins values, the source holds several entries; their conditions need not be identical. Identical values can stand only once. The list shows a part of the results. This data set is noisy: repeats of one test often differ as much as different tests do.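 HEK293T cells were given each compound shortly before transfection with a reporter in which red mCherry is followed by the SARS-CoV-2 frameshift element and then GFP in the −1 frame, so GFP appears only after frameshifting.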

The molecules below were run on HEK293T (assay: percent viability (nuclei count) relative to control; higher = more viable cells). Conditions: 10 µM; 24 h.

Row | Structure (SMILES) | percent viability
1 | C[C@H](NC(=O)[C@H](CC(=O)O)NC(=O)CNC(=O)CNC(=O)[C@H](C)NC(=O)[C@@H](N)Cc1c[nH]c2ccccc12)C(=O)N[C@@H](CO)C(=O)NCC(=O)N[C@@H](CCC(=O)O)C(=O)O [emideltide] | 123%
2 | C[C@@H]1C/C=C/C=C/C=C/C=C/[C@H](O[C@@H]2O[C@H](C)[C@@H](O)[C@H](N)[C@@H]2O)C[C@@H]2O[C@](O)(C[C@@H](O)C[C@H]3O[C@@H]3/C=C/C(=O)O1)C[C@H](O)[C@H]2C(=O)O | 188%
3 | Cc1cncc(CN2CCC(=C3c4ccc(Cl)cc4CCc4cccnc43)CC2)c1 [rupatadine] | 227%
4 | CC(=O)OCC(=O)[C@@]1(O)CC[C@H]2[C@@H]3CCC4=CC(=O)CC[C@]4(C)[C@H]3[C@@H](O)C[C@@]21C [Hydrocortisone 21-acetate] | 133%
5 | COc1ccc(CC(C)NCC(O)c2ccc(O)c(NC=O)c2)cc1 (stereo not given) [formoterol] | 147% and 205%
6 | CNCCCC12CCC(c3ccccc31)c1ccccc12 [maprotiline] | 374% and 209%
7 | OCc1cccnc1 | 237%
8 | CCC(CC)(CC(=O)Nc1cccc(/C=C/c2nc(C3CCC3)cs2)c1)C(=O)O [cinalukast] | 305%
9 | NC1CCN(c2c(F)cc3c(=O)c(C(=O)O)cn(C4CC4)c3c2Cl)C1 (stereo not given) [Clinafloxacin] | 141%
10 | CC(C)(C)NCC(O)c1ccc(O)c(CO)c1 (stereo not given) [salbutamol] | 400% and 159%
11 | CNC(=O)COc1cc2cc(Nc3nc(N4C[C@H](C)C[C@H](C)C4)ncc3Cl)ccc2n(C)c1=O | 277%
12 | OC(CCCN1CCc2c(c3cc(F)ccc3n2-c2ccc(F)cc2)C1)c1ccc(F)cc1 (stereo not given) [flutroline] | 146%
13 | CCOC(=O)C1=C(C)NC(C)=C(C(=O)OCC)C1c1ccccc1/C=C/C(=O)OC(C)(C)C [Lacidipine] | 249%
14 | CCC[C@H](NC(=O)[C@@H]1[C@H]2CCC[C@H]2CN1C(=O)[C@@H](NC(=O)[C@@H](NC(=O)c1cnccn1)C1CCCCC1)C(C)(C)C)C(=O)C(=O)NC1CC1 [Incivik] | 94.1%
15 | CCN(CC)CCS(=O)(=O)[C@@H]1CCN2C(=O)c3coc(n3)CC(=O)C[C@H](O)/C=C(C)/C=C/CNC(=O)/C=C/[C@@H](C)[C@@H](C(C)C)OC(=O)[C@@H]12 [dalfopristin] | 145%
16 | CN(C)CCc1c[nH]c2ccc(C[C@H]3COC(=O)N3)cc12 [zolmitriptan] | 208%
17 | Nc1cccc(-n2ccccc2=O)c1 [amphenidone] | 182%
18 | CC1(C)S[C@@H]2[C@H](NC(=O)[C@H](N)c3ccccc3)C(=O)N2[C@H]1C(=O)OC1OC(=O)c2ccccc21 (stereo not given in full) [talampicillin] | 172%
19 | NCC(=O)CCC(=O)O | 334%
20 | C/C=C\C=C\[C@@H]1O[C@](O)([C@H](CC)C(=O)NC/C=C/C=C(\C)[C@@H](OC)[C@H](C)[C@@H]2O[C@H](/C=C/C=C/C=C(\C)C(=O)c3c(O)cc[nH]c3=O)[C@H](O)[C@@H]2O)[C@H](O)[C@H](O)C1(C)C [mocimycin] | 137%
21 | CC1(C)NC(=O)N(c2ccc([N+](=O)[O-])c(C(F)(F)F)c2)C1=O [nilutamide] | 262%
22 | CC(=O)O[C@@]12CO[C@@H]1C[C@H](O)[C@@]1(C)C(=O)[C@H](O)C3=C(C)[C@@H](OC(=O)[C@H](O)[C@@H](NC(=O)OC(C)(C)C)c4ccccc4)C[C@@](O)([C@@H](OC(=O)c4ccccc4)[C@H]21)C3(C)C [docetaxel] | 34.1%
23 | O=P(O)(O)C(Sc1ccc(Cl)cc1)P(=O)(O)O [tiludronic acid] | 320%
24 | NC(=O)NC(=O)Cc1ccccc1 [phenacemide] | 318%
25 | COCCCC/C(=N\OCCN)c1ccc(C(F)(F)F)cc1 [fluvoxamine] | 268%
26 | CN1CCN(c2cc3c(nn2)Oc2ccccc2N3C)CC1 [pipofezine] | 269%
27 | Cn1c2ncnc-2c(O)n(C)c1=O [Oxtriphylline] | 239%
28 | O=C([O-])CN(CCN(CC(=O)[O-])CC(=O)[O-])CC(=O)[O-].[Co+2].[Co+2] [Kelocyanor] | 209%
29 | Cn1nnnc1SCC1=C(C(=O)O)N2C(=O)[C@@H](NC(=O)[C@H](OC=O)c3ccccc3)[C@H]2SC1 | 265%
30 | CC/N=C(\NCC)NCCCC[C@H](NC(=O)[C@H](CC(C)C)NC(=O)[C@@H](CCCCN/C(=N/CC)NCC)NC(=O)[C@H](Cc1ccc(O)cc1)NC(=O)[C@H](CO)NC(=O)[C@@H](Cc1cccnc1)NC(=O)[C@@H](Cc1ccc(Cl)cc1)NC(=O)[C@@H](Cc1ccc2ccccc2c1)NC(C)=O)C(=O)N1CCC[C@H]1C(=O)N[C@H](C)C(N)=O [ganirelix] | 332%
